Reference: patent US12539326B2, “Methods for treating Alzheimer's disease using semaglutide” (Novo Nordisk A/S, priority 2019, dated 2026)
At least one structure is not confirmed: it was looked up by name or label, or the drawing left a doubt.

Tested on: Patients with type 2 diabetes at high risk for or with established cardiovascular disease
Experiment: Dementia in pooled double-blind RCTs (LEADER, SUSTAIN-6, PIONEER 6), GLP-1 receptor agonist versus placebo
Assay type: in vivo, human
Conditions: each RCT, active arm vs. placebo
Method: Exposure to GLP-1 receptor agonist and subsequent diagnosis of dementia was assessed in data sources with long term treatment exposure including three pooled double-blind randomized controlled trials (RCTs) and a nationwide cohort of patients with diabetes. This was done with the aim of investigating whether use of GLP-1 receptor agonists reduces the onset of dementia in patients with diabetes.
A triangulation approach integrating study designs and data sources with different key sources of potential bias was employed to obtain a more reliable answer. First, data was pooled from three large RCTs with GLP-1 receptor agonists; liraglutide (LEADER; 9,340 patients), subcutaneous semaglutide (SUSTAIN-6; 3,297 patients), and oral semaglutide (PIONEER 6; 3,183 patients). All three trials were multicenter, double-blind, placebo-controlled cardiovascular outcomes trials. […]
For the pooled RCTs, an intention-to-treat analysis was performed using Cox regression with treatment assignment as the only explanatory variable to determine the hazard ratio for developing dementia with GLP-1 receptor agonists versus placebo. […] The incidence of dementia with death as competing risk was calculated using the Aalen-Johansen estimator.

Which “Dementia SMQ GLP-1 Receptor Agonists no. of events” value (median follow-up 3.8 years (LEADER), 2.1 years (SUSTAIN-6), 1.3 years (PIONEER 6)) does the source give for CCCCCCCCCCCCCCCC(=O)N[C@@H](CCC(=O)NCCCC[C@H](NC(=O)[C@H](C)NC(=O)[C@H](C)NC(=O)[C@H](CCC(N)=O)NC(=O)CNC(=O)[C@H](CCC(=O)O)NC(=O)[C@H](CC(C)C)NC(=O)[C@H](Cc1ccc(O)cc1)NC(=O)[C@H](CO)NC(=O)[C@H](CO)NC(=O)[C@@H](NC(=O)[C@H](CC(=O)O)NC(=O)[C@H](CO)NC(=O)[C@@H](NC(=O)[C@H](Cc1ccccc1)NC(=O)[C@@H](NC(=O)CNC(=O)[C@H](CCC(=O)O)NC(=O)[C@H](C)NC(=O)[C@@H](N)Cc1cnc[nH]1)[C@@H](C)O)[C@@H](C)O)C(C)C)C(=O)N[C@@H](CCC(=O)O)C(=O)N[C@@H](Cc1ccccc1)C(=O)N[C@H](C(=O)N[C@@H](C)C(=O)N[C@@H](Cc1c[nH]c2ccccc12)C(=O)N[C@@H](CC(C)C)C(=O)N[C@H](C(=O)N[C@@H](CCCNC(=N)N)C(=O)NCC(=O)N[C@@H](CCCNC(=N)N)C(=O)NCC(=O)O)C(C)C)[C@@H](C)CC)C(=O)O [Liraglutide, Arg34,Lys26-(N-epsilon-(gamma-L-glutamyl(N-alfa-hexadecanoyl)))-GLP-1(7-37)] here?
Its value is 12.

What about the “Dementia SMQ GLP-1 Receptor Agonists rate” value (unit not printed in table (b13 gives pooled rates per 1000 patient-years)) of the same molecule?
The value was 0.69.
